Measurements from PubChem BioAssay AID652054 (National Center for Advancing Translational Sciences (NCATS), 2013).
Hit rate of the full screen: of about 360,000 compounds, about 9,100 (2.5%) were called active. Inconclusive results, whose numbers are uncertain, are shown with a selection of clear calls. Cut-off read from the data, not from the text of the source: active = max response below about -50%; inconclusive = no clear call, values can overlap the other calls; inactive = above that.

The chains behind the UniProt entries cited, without tags or fusion partners.
UniProt P35462, whole entry, looked up: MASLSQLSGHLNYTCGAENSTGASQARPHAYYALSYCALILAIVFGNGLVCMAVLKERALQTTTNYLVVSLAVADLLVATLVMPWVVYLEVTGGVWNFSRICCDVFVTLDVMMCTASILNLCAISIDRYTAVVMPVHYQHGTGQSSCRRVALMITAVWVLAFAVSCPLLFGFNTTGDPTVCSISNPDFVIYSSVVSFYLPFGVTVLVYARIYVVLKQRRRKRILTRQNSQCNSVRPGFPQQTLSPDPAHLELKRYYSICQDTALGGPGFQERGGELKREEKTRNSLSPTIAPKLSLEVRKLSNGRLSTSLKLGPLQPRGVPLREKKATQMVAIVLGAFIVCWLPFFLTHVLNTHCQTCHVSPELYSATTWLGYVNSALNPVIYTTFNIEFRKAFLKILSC

biological target: D(3) dopamine receptor (Homo sapiens) (UniProt P35462); experiment: qHTS of D3 Dopamine Receptor Antagonist: qHTS; details: D3R cells, DiscoveRx beta-arrestin luminescence, antagonist mode; active compounds read low
Method in brief: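 Cells plated overnight at 1500 cells/well, then exposed to library compounds with dopamine controls for 90 minutes at 37 degrees C. DiscoveRx reagent added for 30–60 minutes at room temperature; luminescence read, quantitative HTS format.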
% is set by controls: 0 for no effect and ±100 for the full control effect.

Structure (SMILES)	max response, negative = inhibition
Fc1ccc(-n2cc(CNCCc3cccnc3)c(-c3ccccc3Cl)n2)cc1	active: -69.9%
COc1ccc(NC(=S)NC2CC3CCC(C2)N3Cc2ccco2)cc1 (centres undefined)	inactive: -22.2%
Cc1cc(C)cc(NC(=S)N=Nc2c(O)n(C)c3ccc(S(=O)(=O)N4CCOCC4)cc23)c1	inconclusive: -39.6%
CC1CCCCC1NS(=O)(=O)c1ccc(S(=O)(=O)N2CCN(CCC#N)CC2)cc1 (centres undefined)	inactive: 15.5%
CC(=O)Nc1cccc(-n2c(=O)n(Cc3ccccc3)c(=O)c3[nH]cnc32)c1	inconclusive: -33.8%
O=C(CSc1nc2ncc(Br)cc2[nH]1)c1ccc([N+](=O)[O-])cc1	inconclusive: -32.7%
CCOc1ccc(C(=O)NC2CC3CCCC(C2)N3Cc2ccccc2)cc1 (centres undefined)	active: -54%
Cc1ccc(NC(=O)C(=O)NCCN2CCN(Cc3ccc([N+](=O)[O-])cc3)CC2)cc1	inconclusive: -39.1%
CC(C)N1CC=C2C(C#N)=C(N)C(C#N)(C#N)C(c3ccccc3)C2C1 (centres undefined)	active: -76.7%
CCCCN(CC)CCNC(=O)c1[nH]c(C)c(C(C)=O)c1C	active: -58.3%
O=C(O)C1CCCC[C@H]1C(=O)Nc1ncc([N+](=O)[O-])s1 (some centres undefined)	inconclusive: -44.7%
O=C(NCCN1CCOCC1)c1ccc2c(c1)N(Cc1ccccc1F)C(=O)CS2	inactive: 10.8%
O=C(O)c1cc(S(=O)(=O)Nc2cccc(S(=O)(=O)N3CCCC3)c2)ccc1Cl	inactive: 7.69%
Clc1ccc(OCc2nc(-c3ccccn3)n[nH]2)cc1	inconclusive: -34%
Cc1cccc2cc(C#N)c(SCCN3CCCCC3)nc12	inconclusive: -35.8%
Cc1cc(C)c2c(=O)n3c(nc2c1)C(Cc1ccccc1)NC(=O)c1cccnc1-3 (centres undefined)	inactive: -20.2%
CC(C)C(=O)NC(c1cccs1)c1cc([N+](=O)[O-])c2cccnc2c1O (centres undefined)	inconclusive: -31%
OCCC1CN(Cc2ccc3cccc(F)c3n2)CCN1Cc1ccccc1 (centres undefined)	inconclusive: -37.9%
CCOc1ccccc1OCCCNCc1ccco1	inactive: -27.4%
O=C(O)CCC(=O)N1CCC(n2nnc3cc(C(F)(F)F)ccc32)CC1	inactive: 7.92%
Cn1c(C(=O)NCCCN2CCc3ccccc3C2)cc2c(=O)n(C)c3ccccc3c21	active: -70.2%
COc1ccc(NC(=O)N2CCN(c3cccc(C(F)(F)F)c3)CC2)cc1OC	inactive: -11.9%
CCCC(=O)Nc1ccc(C2C(=O)c3ccccc3C2=O)cc1	inconclusive: -39.9%

Structure (SMILES)	max response, negative = inhibition
CCOC(=O)c1cc(-c2ccco2)nc2c1c(C)nn2-c1cccc(Cl)c1	inconclusive: -33%
COc1ccc(CC(=O)NNC2=Nc3cccc4cccc2c34)cc1OC	inconclusive: -44.7%
CNC(=O)C(=O)NCCN1CCN(C(=O)c2ccc([N+](=O)[O-])cc2)CC1	inactive: -8.98%
Cc1nc(N(C)Cc2ccccc2)c2nnn(Cc3ccccc3)c2n1	inconclusive: -41%
CS(=O)(=O)N1CCN(c2ccccc2NC(=O)c2ccc([N+](=O)[O-])o2)CC1	inactive: -18.8%
O=P(OC1CCCCC1)(OC1CCCCC1)C(O)c1ccc(Cl)cc1Cl (centres undefined)	inactive: -21.8%
Cc1nc2[nH]onc2c2nccc(=O)c12	inconclusive: -49.8%
CCCC(=O)N1CCN(Cc2ccc3c(c2)OCO3)CC1	inconclusive: -42.3%
COc1cc2c(cc1N)-c1ccc(N)cc1C2=O	inactive: -27.7%
O=[N+]([O-])c1ccc(N2CCN(S(=O)(=O)c3ccccc3)CC2)c2cccnc12	inconclusive: -42.4%
Cc1cc(-c2c(C)[nH]n(-c3ccc(Cl)cc3)c2=O)n(-c2ccc(Cl)cc2)n1	inconclusive: -30.7%
O=C1c2ccccc2C(=O)N1c1cccc(-c2nc3ccccc3o2)c1	inconclusive: -42.2%
CCOc1ccc(N=C2NC(=O)SC2CC(=O)OC)cc1 (centres undefined)	inactive: 8.12%
CCN(CC)C(=O)c1[nH]cnc1C(=O)NCc1ccccc1	active: -54%
COc1ccc(CNC(=O)CCNC(=O)C2CCN(S(=O)(=O)c3ccc(OC)cc3)CC2)cc1	inactive: -2.36%
CCC(C)NC(=O)C1CCC(CNS(=O)(=O)c2ccc3c(c2)CC(C)N3C(=O)C2CC2)CC1 (centres undefined)	inactive: -4.21%
COCc1cc(C)nc(SCC(=O)Nc2ccc(C)c(C)c2)c1C#N	inactive: 17%
Cn1c(N=Nc2ccc(N3CCOCC3)cc2)[n+](C)c2ccccc21	inconclusive: -41.7%
O=C(NCC(c1cccs1)N1CCOCC1)c1ccc(Cl)s1 (centres undefined)	inconclusive: -33.9%
COc1ccc(OCc2cc(C(=O)N3CCN(CC4CC4)CC3)no2)c(Cl)c1	inconclusive: -47.7%
COc1ccc(C(=O)N2CCC2(C)C(=O)NC(C)C)cc1OC (centres undefined)	inactive: 11.1%
C/C(=N\Nc1ccc(Cl)cc1)c1ccncc1	inconclusive: -38.7%
CC(C)CN(CC(C)C)c1nc(N)c(C#N)c(CC#N)c1C#N	inconclusive: -35.2%

Four entries picked at random from those above:
Structure (SMILES)	max response, negative = inhibition
CCOc1ccc(N=C2NC(=O)SC2CC(=O)OC)cc1 (centres undefined)	inactive: 8.12%
Clc1ccc(OCc2nc(-c3ccccn3)n[nH]2)cc1	inconclusive: -34%
CCCCN(CC)CCNC(=O)c1[nH]c(C)c(C(C)=O)c1C	active: -58.3%
O=C(NCCN1CCOCC1)c1ccc2c(c1)N(Cc1ccccc1F)C(=O)CS2	inactive: 10.8%

(next part)

Structure (SMILES)	max response, negative = inhibition
Cc1nn(-c2ccccc2)c(Cl)c1/C=N/Nc1ccc(S(=O)(=O)Nc2ccccc2C(=O)O)cc1[N+](=O)[O-]	inconclusive: -35.6%
CCCN(CCC)CCNC(=O)CCC(=O)Nc1ccc2nc(N3CCN(C)CC3)cc(C)c2c1	inconclusive: -34%
O=C(COc1ccc(-c2nnco2)cc1)NC1CCS(=O)(=O)C1 (centres undefined)	inconclusive: -30.3%
CCCNC(=S)N1CCN(C(c2ccccc2)c2ccccc2)CC1	inactive: 1.85%
Cc1ccsc1/C=C1/C(=O)NN(c2ccccc2)C1=O	inconclusive: -36.6%
CC(C)C[C@H](NC(=O)c1nc[nH]c1C(=O)NCC(=O)OC(C)(C)C)C(=O)OCc1ccccc1	inactive: 32.9%
O=C(NCC1CCN(Cc2ccccc2F)CC1)Nc1cccc(Br)c1	inconclusive: -49.6%
CC(=O)Nc1ccc(-c2cn3cc(C)ccc3n2)cc1	inconclusive: -36.9%
CN(C(=O)c1ccc(S(=O)(=O)c2cccc(Cl)c2)c([N+](=O)[O-])c1)C1CCCCC1	inconclusive: -34%
O=C(C1CCN(S(=O)(=O)c2c(Cl)cccc2Cl)CC1)N1CCCCCCC1	inconclusive: -30.3%
O=C(CSc1ccccn1)Nc1nncs1	inconclusive: -36.7%
CC(=O)c1ccc(OCCCC(=O)NCCc2ccc(C(F)(F)F)cc2)cc1	inconclusive: -31%
COc1ccc(Br)cc1CN1CCN(C(=O)c2ccco2)CC1	active: -61.4%
CCOC(=O)CSc1nnc(CNc2cccc(Cl)c2)n1-c1ccccc1	inactive: -7.76%
CN(C)S(=O)(=O)c1cccc(NC(=S)Nc2cccc3cnccc23)c1	active: -59.1%
CCOc1ccc(/C=C2\CCc3ccccc3C2=O)cc1	inconclusive: -38%
COc1cc(OC)cc(C(=O)N[C@@H](CCSC)c2nc3ccccc3[nH]2)c1	active: -56%
Cc1cc(F)c(F)c(C(=O)N2CCN(C)CC2)c1Cl	inactive: -20.8%
COc1ccccc1N1CCN(c2nc3ccccc3nc2C(C#N)C(=O)OC(C)C)CC1 (centres undefined)	inactive: 16.5%
O=C(NCCNC1CCC(c2ccccc2)CC1)c1cccs1 (centres undefined)	active: -54.5%
N#Cc1ccc(CSc2nc(N)cc(N)n2)cc1	active: -55.2%
Cc1cc(=O)[nH]c(NN=C2CCCCC2C)n1 (centres undefined)	inconclusive: -33.1%
Cc1ccc(C(=O)NC(Cc2ccccc2C(F)(F)F)C(=O)O)cc1 (centres undefined)	inconclusive: -32.1%

Structure (SMILES)	max response, negative = inhibition
CN(C)c1ccc(-c2noc(-c3ccccc3O)n2)cc1	inconclusive: -46%
CC(C)(C)C1CCc2c(C(=O)N/N=C/c3cccs3)csc2C1 (centres undefined)	inconclusive: -30.8%
O=C(NCc1ccco1)c1ccc2sc([C@@H]3O[C@H](CO)[C@@H](O)[C@H]3O)nc2c1	inactive: 3.79%
CCCSC1=C(C#N)C(c2ccc(O)c(OC)c2)CC(=O)N1 (centres undefined)	inactive: 0%
CCN1C(=O)c2ccccc2S(=O)c2ccc(C(=O)NCCN(CC(C)C)CC(C)C)cc21 (centres undefined)	active: -65.4%
Cc1cccnc1C(NC(=O)C1CCN(Cc2ccc3ccccc3n2)CC1)c1ccc(Cl)cc1 (centres undefined)	active: -68.4%
CC1=C([N+](=O)[O-])C(c2cccc(Br)c2)C2=C(N1)c1ccccc1C2=O (centres undefined)	active: -94.4%
COc1ccccc1-c1cc(C(=O)NCc2ccc(Cl)cc2)no1	inconclusive: -44.6%
COc1ccccc1CNC(=O)C1CCC1	inconclusive: -34.8%
CCNc1nc(NC(C)C)nc(N(C#N)Cc2ccccc2)n1	inconclusive: -30.6%
COc1cccc(CN2CCc3ccc(NC(=O)CCc4ccc(C)cc4)cc3C2)c1O	inconclusive: -35.4%
c1ccc(C2[C@H]3CN(Cc4cccnc4)[C@H](c4ccccc4)C34CC2(c2ccccc2)C4)cc1 (some centres undefined)	inactive: 0.59%
COc1ccc(Cn2nnc3ccccc32)cc1	inconclusive: -39.5%
O=c1ccc2ccccc2c2ccccc12	active: -78.9%
CCOC(=O)c1oc2cccc(O)c2c1CN1CCOCC1	inactive: 3.53%
CC1(C(=O)NS(=O)(=O)c2cccc(OC(F)F)c2)CCN1C(=O)COc1ccc(Cl)cc1 (centres undefined)	inactive: 0%
O=C(C[C@@H]1C/C=C\C[C@H](Cc2ccc(F)cc2)C(=O)OC[C@@H](Cc2c[nH]c3ccccc23)NC1=O)NCCO	inconclusive: -35%
COc1nc(-c2ccccc2)ccc1-c1noc(COc2ccccc2)n1	inconclusive: -42.9%
O=C(c1ccccc1)N1CCN(S(=O)(=O)N2CCOCC2)CC1	inconclusive: -46.5%
CN(C)c1ccc(C(=S)N2CCN(C(=S)Nc3cccc4ccccc34)CC2)cc1	inconclusive: -31.7%

As entered above.
max response, negative = inhibition, `CC1=C([N+](=O)[O-])C(c2cccc(Br)c2)C2=C(N1)c1ccccc1C2=O` (centres undefined) reads active: -94.4%
max response, negative = inhibition, `CN(C)c1ccc(C(=S)N2CCN(C(=S)Nc3cccc4ccccc34)CC2)cc1` reads inconclusive: -31.7%
